Measured values: US10653717B2, “Antibiotic compositions” (priority 2016, dated 2020)
At least one structure is not confirmed: it was looked up by name or label, or the drawing left a doubt. Some entries repeat one wording, which the source may state once for all of them.

How the values were obtained:
wild type E. coli DHB4 = test: MIC of nine antibiotics and silver in combinations on E. coli DHB4; assay type: cell-based, Escherichia coli; settings: serial dilutions of Ag^+ and antibiotic; 24 h
Method: E. coli DHB4 overnight cultures were diluted 1:1000 times in Luria Bertani (LB) medium, and treated with serial dilutions of ionic silver (Ag^+) as a nitrate salt and 9 antibiotics in combinations, separately, for 24 h.
E. coli DHB4 from frozen stock were grown overnight at 37° C., 400 rpm. The overnight culture was diluted 1:100 with 5 ml of LB medium in 15 ml tubes and incubated at 37° C. at 400 rpm. Cells were grown until an OD600 nm of 0.4 and were used for antibiotic treatment. Briefly, cells were diluted 1:1,000 into 100 μl of LB medium in 96 micro-well plates. […] The minimum inhibition concentration (MIC) was determined as the lowest concentration of drugs that inhibited 90% of growth compared to the untreated cells after 24 h culture at 37° C. The cultures treated with the same serial dilutions of 100 μl ebselen and silver nitrate were used as the positive control.

E. coli = test: Degree of synergy, Bliss Independence Model; assay type: cell-based, Escherichia coli; settings: 5 μM AgNO3 with 80 μM antibiotic; 1 and 4 h

Row | Structure (SMILES) | activity with silver on E. coli DHB4 growth (wild type E. coli DHB4) | degree of synergy with Ag^+ (Bliss model) (E. coli)
1 | CN[C@@H]1[C@@H](O)[C@@H](O[C@@H]2[C@@H](O)[C@H](O[C@H]3O[C@H]([C@@H](C)O)[C@@H](O)[C@H](O)[C@H]3N)[C@@H](N)C[C@H]2N)OC[C@]1(C)O [Geneticin] | synergistic activity | synergistic combinations
2 | NC[C@H]1O[C@H](O[C@H]2[C@H](O)[C@@H](O[C@H]3O[C@H](CO)[C@@H](O)[C@H](N)[C@H]3O)[C@H](N)C[C@@H]2N)[C@H](O)[C@@H](O)[C@@H]1O [Kanamycin] |  | synergistic combinations
3 | CN(C)[C@@H]1C(O)=C(C(N)=O)C(=O)[C@@]2(O)C(O)=C3C(=O)c4c(O)cccc4[C@@](C)(O)[C@H]3C[C@@H]12 [Tetracycline] |  | synergistic combinations
